# Assay results as given in patent publication US11192903B2, “Zirconium-89 oxine complex as a cell labeling agent for positron emission tomography” (The United States of America, as represented by the …, priority 2014, dated 2021).
# Experiments:
# BM cells = settings: 11.0-55.5 kBq/10^6 cells, PBS, 20 minutes
structure (smiles),measurement,setting,value
c1cnc2c([O][89Zr]([O]c3cccc4cccnc34)([O]c3cccc4cccnc34)[O]c3cccc4cccnc34)cccc2c1 [^89Zr-oxine complex],cell-associated radioactivity,BM cells,3.0-16.7 kBq
same,labeling efficiency,BM cells,24-30%
same,labeling efficiency,CTLs; activated CTLs,21%
same,labeling efficiency,CTLs; naïve T cells (CTLs),11%
same,labeling efficiency,"EL4 cells; 37° C., all media",low under all media conditions
same,labeling efficiency,"EL4 cells; complete cell media, RT or 4° C.",about two thirds of that achieved in PBS
same,labeling efficiency,"EL4 cells; serum free medium, RT or 4° C., vs PBS",did not significantly decrease the labeling compared to PBS

# Where two headings read alike, the source gives them in different places.
